Results taken from patent publication US5277897A, “In vivo enhancement of cellular accumulation of lipophilic cationic organometallic compounds by reduction of intramembrane potential” (Brigham and Women's Hospital, priority 1992, dated 1994).
Like-named read-outs stand apart in the source and are kept apart here. For at least one compound, name, drawing or mass did not settle the structure.

Assays:
[1] = test system: cultured chick heart cells; test: Effect of TPB on net accumulation of Tc-MIBI in cultured chick heart cells (FIG. 1); type: cell-based
Procedure: FIG. 1. Effect of TPB on net accumulation of Tc-MIBI in cultured chick heart cells. Preparations were incubated for the times indicated in Modified Earle's Basic Salt Solution (MEBSS) control buffer containing tracer Tc-MIBI alone (.quadrature.) and with various concentrations of tetraphenylborate: ( ) 10^-9 M; ( ) 5×10^-7 M; (·) 10^-5 M. Results are expressed as fmol cellular Tc-MIBI/mg protein per nM extracellular Tc MIBI. Each point represents the mean ±SEM of 3 determinations.
Control buffer was a modified Earle's balanced salt solution (MEBSS) with the following composition (mN) Na^30, 145; K^+, 5.4; Ca^2, 1.2; Mg^2+, 0.8; Cl, 152; H2 PO4, 0.8; SO4^2-, 0.8; dextrose, 5.6; HEPES, 4.0; and bovine calf serum, 1% (v/v); […]; 37° C. K-methanesulfonate was made by titration of methanesulfonic acid with KOH (Piwnica-Worms, D., et al., J. Gen. Physiol. 81:731-748 (1983)) and replaced […] in some solutions by equimolar substitution where indicated. Natetraphenylborate, CCCP, bumetanide and valinomycin were dissolved into DMSO prior to addition to buffer. DMSO alone has no significant affect on contractile activity, action potential configuration (Lieberman, M., et al., Dev. Biol. 31:380-403 (1973)) or Tc-MIBI uptake kinetics (Piwnica-Worms, D., et al., Circ. (in press)).
(§1) Monolayers of spontaneously contractile chick ventricular myocardial cells were obtained from disaggregated 10-day old chick embryo hearts by a slight modification of previously published methods (Horres, C. R., et al., In Pinson, A. (ed.), The Heart Cell in Culture, Boca Raton, CRC Press, pp. 77-108 (1987)). Hearts were trimmed of connective tissue and atria, finely minced and serially exposed to 0.024% (w/v) trypsin in Ca^2+ - and Mg^2+ - free Earle's salt solution for 7 minutes at 37° C. Gentle trituration and agitation on an orbital shaker bath aided disaggregation. Cells released from the first exposure were discarded and cells aspirated from the next four exposures were then added to an equal volume of trypsin deactivating solution consisting of ice-cold culture medium. Cells were centrifuged at 400 g for 10 minutes, resuspended and combined in culture medium, counted with a hemocytometer and diluted to yield a suspension of 5×10^5 cells/ml. 12 ml of suspension were incubated in 100 mm plastic culture dishes containing 7 coverslips (25 mm diameter) placed on the bottom of each dish to serve as substrate for cell growth. […]
Radioactive uptake methods have been described in detail (Piwnica-Worms, D., et al, Circ. (in press). Briefly, coverslips with confluent cells were removed from culture media and pre-equilibrated for 40-60 seconds in MEBSS buffer. Uptake and retention experiments were initiated by immersion of coverslips in 60 mm glass Pyrex dishes containing loading solution consisting of buffer with 0.1-0.6 nM [^99m Tc-MIBI] (0.01-0.4 Ci/nmole; 25-100 uCi/ml). Preparations were removed at various times and rinsed three times in 25 ml volumes of ice-cold (2° C.) isotope-free buffer for 8 seconds each to clear extracellular spaces. Preparations and aliquots of the loading buffer and stock solutions were counted in a well-type sodium iodide gamma counter after which cell protein on each coverslip was extracted in 1% sodium dodecylsulfate with 10 mM sodium borate and assayed by the method of Lowry (Lowry, O. H., et al., J. Biol. Chem. 193:265-275 (1951)). […]

[2] = test system: cultured chick heart cells; test: Concentration-effect curve for TPB enhancement of 2-minute uptake of Tc-MIBI (FIG. 2); type: cell-based
Procedure: FIG. 2. Concentration-effect curve for TPB enhancement of 2-minute uptake of Tc-MIBI. Preparations were pre-incubated for 1 minute in control MEBSS buffer containing TPB at the indicated concentrations prior to determination of tracer Tc-MIBI uptake in the continued presence of TPB. Each point represents the mean ±SEM of 3 determinations.
as §1, with “cells/ml.” for “cells/ml. 12 ml of suspension were incubated in 100 mm plastic culture dishes containing 7 coverslips (25 mm diameter) placed on the bottom of each dish to serve as substrate for cell growth.”

[3] = test system: cultured chick heart cells; test: Influence of TPB and CCCP on (membrane potential-independent) accumulation of Tc-MIBI (FIG. 4); type: cell-based
Procedure: FIG. 4. […] Preparations were incubated for the times indicated in 5.4 mM Ko control loading buffer containing tracer Tc-MIBI and TPB together (Δ) or in loading buffer containing Tc-MIBI alone (.quadrature.). For the latter incubation, TPB was added to the loading buffer at the arrow and cell content of Tc-MIBI subsequently determined (o). Under each condition, CCCP was added to the loading buffers as indicated by the arrows and cell content of Tc-MIBI determined ( , , ·). Each point is the mean ±SEM of 3 determinations.
as §1, with “Cells released from the first exposure were discarded and cells aspirated from the next four exposures were then added to an equal volume of trypsin deactivating solution consisting of ice-cold culture medium.” left out, “cells/ml.” for “cells/ml. 12 ml of suspension were incubated in 100 mm plastic culture dishes containing 7 coverslips (25 mm diameter) placed on the bottom of each dish to serve as substrate for cell growth.”

[4] = test system: cultured chick heart cells; test: Effect of valinomycin on tetraphenylborate enhancement of Tc-MIBI accumulation in high Ko buffer (Table 1); type: cell-based
Procedure: as §1, with “growth. Cells were maintained in a humidified atmosphere of 5% CO2 /95% air for 3-4 days yielding a confluent layer of spontaneously contractile myocytes on each coverslip.” for “growth.”

[5] = test system: cultured chick heart cells; test: Ko-dependence of Tc-MIBI net uptake in the absence and presence of TPB (FIG. 5); type: cell-based; settings: TPB 10^-5 M
Procedure: FIG. 5. Ko -dependence of Tc-MIBI net uptake in the absence ( ) and presence (.quadrature.) of TPB (10^-5 M). Peak accumulation of Tc-MIBI was determined in preparations incubated in loading buffers containing the indicated Ko (equimolar replacement of NaCl by KCl) for 40 minutes (control) or for 20 minutes (+TPB). Ko -induced cell volume changes were prevented by addition of bumetanide (10^-5 M) to each buffer. Each point is the mean ±SEM of 3 determinations. Solid lines have no theoretical significance. The dashed line represents the Tc-MIBI content expected at each Ko assuming an intracellular/extracellular Tc-MIBI concentration ratio equal to the Ki /Ko ratio.
Monolayers of spontaneously contractile chick ventricular myocardial cells were obtained from disaggregated 10-day old chick embryo hearts by a slight modification of previously published methods (Horres, C. R., et al., In Pinson, A. (ed.), The Heart Cell in Culture, Boca Raton, CRC Press, pp. 77-108 (1987)). Hearts were trimmed of connective tissue and atria, finely minced and serially exposed to 0.024% (w/v) trypsin in Ca^2+ - and Mg^2+ - free Earle's salt solution for 7 minutes at 37° C. […] Cells were centrifuged at 400 g for 10 minutes, resuspended and combined in culture medium, counted with a hemocytometer and diluted to yield a suspension of 5×10^5 cells/ml. […]

[6] = cited from earlier work
[7] = cited from earlier work; remark: listed apart in the source
human lymphocytes = settings: lipophilic anion tetraphenylborate in the incubation buffer; cited from earlier work
[8] = test system: isolated heart mitochondria; settings: low concentrations of TPB; cited from earlier work
[9] = test system: vesicles prepared from E. coli; settings: low concentrations of TPB; cited from earlier work
[10] = test system: isolated perfused rat liver; settings: low concentrations of TPB; cited from earlier work

## c1ccc([B-](c2ccccc2)(c2ccccc2)c2ccccc2)cc1 [TPB, tetraphenylborate]
[1]; TPB 10^-5 M
  peak accumulation faster than control: 3 fold
  time of peak accumulation of Tc-MIBI: 10 to 20 min
[1]; TPB 10^-9 M
  rate of Tc-MIBI accumulation: minimally increased the rate of Tc-MIBI accumulation
[1]; TPB 10^-9 M, P >0.5
  final equilibrium content of Tc-MIBI: did not significantly affect final equilibrium content
[1]; TPB concentrations equal or greater than 5×10^-7 M
  maximal accumulation and uptake kinetics of Tc-MIBI: increased both maximal accumulation and the uptake kinetics of Tc-MIBI
[2]; TPB higher than 3×10^-5 M
  net cellular accumulation of Tc-MIBI: markedly reduced net cellular accumulation of Tc-MIBI
[2]; in vitro, chick ventricular myocardial cells
  optimal concentration range of TPB: 3×10^-6 M to 3×10^-5
[3]; TPB-treated cells vs control
  CCCP-insensitive retention of Tc-MIBI: slightly higher in TPB-treated cells
[3]; pre-incubation period with TPB
  onset of augmentation of Tc-MIBI myocellular kinetics, detected as early as: 5 s
[4]; 130 mM Ko buffer plus valinomycin, moderate concentrations of TPB
  TPB-induced potential-independent membrane partitioning of tracer Tc-MIBI: no evidence of TPB-induced potential-independent membrane partitioning of tracer Tc-MIBI
[4]; TPB 10^-5 M, augmentation completely valinomycin-sensitive
  myocellular content of Tc-MIBI in high K buffer: increased myocellular content of Tc-MIBI in high K. buffer
[5]
  Tc-MIBI net accumulation at all K concentrations: increased Tc-MIBI net accumulation at all K. concentrations
[6]
  electrostatic saturation of binding: 600 µM
[7]
  electrostatic saturation of binding: exceeding 10^-6 M
Human lymphocytes
  kinetics of plasma membrane translocation: augmented
[8]
  uptake kinetics of other lipophilic cations: increase uptake kinetics of other lipophilic cations
[9]
  uptake kinetics of other lipophilic cations: increase uptake kinetics of other lipophilic cations
[10]
  uptake kinetics of other lipophilic cations: increase uptake kinetics of other lipophilic cations
